The record followed here is PMC12514821.

Chains of the proteins cited; added tags and fusions are not shown.
UniProt P11142: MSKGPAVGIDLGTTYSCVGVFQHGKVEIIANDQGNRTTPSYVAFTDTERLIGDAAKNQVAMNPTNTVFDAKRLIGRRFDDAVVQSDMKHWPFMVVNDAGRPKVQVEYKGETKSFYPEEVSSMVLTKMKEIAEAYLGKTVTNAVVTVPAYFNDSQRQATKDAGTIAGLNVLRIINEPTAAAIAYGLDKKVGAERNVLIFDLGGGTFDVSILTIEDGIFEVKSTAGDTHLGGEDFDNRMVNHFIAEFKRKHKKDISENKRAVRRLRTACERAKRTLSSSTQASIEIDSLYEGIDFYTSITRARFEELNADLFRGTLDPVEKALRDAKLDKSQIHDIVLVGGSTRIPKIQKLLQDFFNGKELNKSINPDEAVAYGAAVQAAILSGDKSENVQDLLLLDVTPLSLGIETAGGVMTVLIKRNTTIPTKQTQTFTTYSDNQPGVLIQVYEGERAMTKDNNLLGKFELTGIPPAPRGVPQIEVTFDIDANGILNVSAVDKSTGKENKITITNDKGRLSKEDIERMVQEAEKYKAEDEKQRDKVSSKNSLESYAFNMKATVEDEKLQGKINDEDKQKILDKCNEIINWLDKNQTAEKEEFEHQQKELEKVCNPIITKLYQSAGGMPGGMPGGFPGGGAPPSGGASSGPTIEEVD

These are yes or no findings as the source states them, for the method shown. In cells and extracts the contact can be indirect. These calls come from enrichment with a bait or labelling near it, and not all partners need be listed.

The test addresses T1, SFB-PDLIM4 (330AA) (UniProt P50479).
T1 sequence: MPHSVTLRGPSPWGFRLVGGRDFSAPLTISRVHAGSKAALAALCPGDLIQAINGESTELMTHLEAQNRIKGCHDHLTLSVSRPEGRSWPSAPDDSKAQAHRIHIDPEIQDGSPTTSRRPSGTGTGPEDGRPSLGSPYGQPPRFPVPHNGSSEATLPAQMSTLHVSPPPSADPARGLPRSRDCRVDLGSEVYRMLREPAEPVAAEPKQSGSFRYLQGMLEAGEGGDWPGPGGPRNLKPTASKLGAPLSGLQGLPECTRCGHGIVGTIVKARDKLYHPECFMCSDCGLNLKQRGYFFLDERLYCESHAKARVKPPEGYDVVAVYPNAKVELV
As to the kind of experiment: affinity purification with mass spectrometry; co-immunoprecipitation of PDLIM4 from HEK-293T cells and mass spectrometry; hits cross-referenced with BioGRID.

As to “HSC70 (endogenous) (from UniProt P11142 1-646)”, the binding result is on record as “binds”.
